PubChem BioAssay AID504791 – Drosophila RNAi Screening Center – 2011
Screen: 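Genes whose knock-down strengthens or weakens small-RNA reporter silencing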 (primary screen). System: Drosophila S2-derived reporter cells. Reagent: long dsRNA against Drosophila genes, about 150-250 ng dsRNA per well (siRNA assay); about 80-120 ng (miRNA assay). Duration: about 5 days (siRNA assay); about 4 days (miRNA assay). Treatment: copper sulfate induction of reporters: 25 µM (siRNA assay); 200 mM stated (miRNA assay), 1-2 days before reading. Measurement: 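Dual luciferase assay: Renilla to firefly signal ratio in each well, scaled to the mean ratio of its plate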. Hit rule: 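a well was a first-pass pick when its plate-scaled ratio rose above 1.5 (siRNA assay) or 1.6 (miRNA assay), or dropped below 0.6; a gene counted only if two separate dsRNAs agreed on retest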.
The deposit covers about 23,000 reagents; this is a random part of those with a known target gene and a result. Over the whole deposit, 199 (0.86%) were called active. 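Plate-scaled ratios behind the calls are not deposited; printed light signals are raw; many rows marked increased or decreased are still called inactive.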 The numbers tell different reagents against one gene apart. Names joined by + are all predicted targets of the reagent. Not stated in the record: the direction of the score.

predicted target | reagent | miRNA reporter change | stable assay Renilla, run 1 (luminescence) | stable assay firefly, run 1 (luminescence) | outcome
CG7272 | 1 | – | 7560 | 3.33e5 | inactive
SMC1 | 1 | – | 6031 | 2.97e5 | inactive
Poxn | 1 | – | 5787 | 4.23e5 | inactive
Poxn | 2 | – | 7098 | 4.62e5 | inactive
Dop2R | 1 | – | 5390 | 4.03e5 | inactive
Dop2R | 2 | – | 5614 | 4.02e5 | inactive
ND-49L | 1 | – | 8098 | 3.79e5 | inactive
PIG-N | 1 | – | 6730 | 4.62e5 | inactive
Ufsp2 | 1 | – | 7819 | 2.72e5 | inactive
casp | 1 | – | 9051 | 2.91e5 | inactive
Coq5 | 1 | – | 3544 | 3.81e5 | inactive
Coq5 | 2 | – | 8874 | 4.52e5 | inactive
CG15385 | 1 | – | 7406 | 3.53e5 | inactive
Tgt | 1 | – | 9801 | 1.67e5 | inactive
Uch | 1 | – | 10595 | 4.24e5 | inactive
CG13613 | 1 | – | 7463 | 3.30e5 | inactive
CG14915 | 1 | – | 5139 | 2.83e5 | inactive
TRAM | 1 | – | 5768 | 3.00e5 | inactive
TRAM | 2 | – | 6398 | 3.76e5 | inactive
CG13457 | 1 | – | 6198 | 3.47e5 | inactive
Arpc2 | 1 | – | 8577 | 1.77e6 | inactive
CalpC | 1 | – | 5327 | 3.99e5 | inactive
dpr6 | 1 | – | 3747 | 3.15e5 | inactive
dpr6 | 2 | – | 6691 | 4.12e5 | inactive
dpr6 | 3 | – | 6384 | 5.81e5 | inactive
Nubp2 | 1 | – | 8163 | 4.53e5 | inactive
Oatp30B | 1 | – | 5207 | 4.53e5 | inactive
Tsen2 | 1 | – | 5543 | 3.32e5 | inactive
Sry-delta | 1 | – | 8656 | 3.44e5 | inactive
ItgaPS4 | 1 | – | 6502 | 3.31e5 | inactive

Next part; the last 11 above are carried over.
predicted target | reagent | miRNA reporter change | stable assay Renilla, run 1 (luminescence) | stable assay firefly, run 1 (luminescence) | outcome
CG13457 | 1 | – | 6198 | 3.47e5 | inactive
Arpc2 | 1 | – | 8577 | 1.77e6 | inactive
CalpC | 1 | – | 5327 | 3.99e5 | inactive
dpr6 | 1 | – | 3747 | 3.15e5 | inactive
dpr6 | 2 | – | 6691 | 4.12e5 | inactive
dpr6 | 3 | – | 6384 | 5.81e5 | inactive
Nubp2 | 1 | – | 8163 | 4.53e5 | inactive
Oatp30B | 1 | – | 5207 | 4.53e5 | inactive
Tsen2 | 1 | – | 5543 | 3.32e5 | inactive
Sry-delta | 1 | – | 8656 | 3.44e5 | inactive
ItgaPS4 | 1 | – | 6502 | 3.31e5 | inactive
CG3288 | 1 | – | 7274 | 3.43e5 | inactive
Dscam3 | 1 | – | 7392 | 3.62e5 | inactive
Dscam3 | 2 | – | 7894 | 4.47e5 | inactive
CG13731 | 1 | – | 7139 | 4.49e5 | inactive
CG17977 | 1 | – | 7018 | 4.40e5 | inactive
eIF4E7 | 1 | – | 6095 | 3.79e5 | inactive
eIF4E7 | 2 | – | 6386 | 3.55e5 | inactive
CG13737 | 1 | – | 6246 | 5.58e5 | inactive
CG5290 | 1 | – | 9855 | 4.26e5 | inactive
Fib | 1 | – | 4627 | 3.53e5 | inactive
CG6567 + CG42394 | 1 | – | 9742 | 6.25e5 | inactive
Fili | 1 | – | 5112 | 3.39e5 | inactive
Fili | 2 | – | 6403 | 3.75e5 | inactive
Fili | 3 | – | 6500 | 3.68e5 | inactive
RacGAP84C | 1 | – | 7440 | 4.22e5 | inactive
CheB53b | 1 | – | 5984 | 4.27e5 | inactive
Flo2 | 1 | – | 4550 | 4.04e5 | inactive
Flo2 | 2 | – | 5232 | 3.65e5 | inactive
CG9436 | 1 | – | 14438 | 1.91e6 | inactive
kune | 1 | – | 6599 | 4.12e5 | inactive
CG14852 | 1 | – | 6392 | 3.41e5 | inactive
Art8 | 1 | – | 7788 | 3.62e5 | inactive
ms(3)76Ba | 1 | – | 9467 | 4.57e5 | inactive
CG34161 | 1 | – | 5327 | 4.18e5 | inactive
CG18302 | 1 | – | 7440 | 3.75e5 | inactive
DCTN1-p150 | 1 | – | 10071 | 4.25e5 | inactive
JMJD4 | 1 | – | 6128 | 1.21e6 | inactive
nsr | 1 | – | 8962 | 6.89e5 | inactive
nsr | 2 | – | 3484 | 2.65e5 | inactive
Spn55B | 1 | – | 4547 | 4.08e5 | inactive
Spn55B | 2 | – | 9281 | 4.97e5 | inactive
btd | 1 | – | 5698 | 4.15e5 | inactive
Pvr | 1 | reporter ratio lowered past the hit cutoff | 63197 | 4.74e5 | inactive
Inx7 + cm | 1 | – | 6774 | 3.29e5 | inactive
CG9123 | 1 | – | 6558 | 5.97e5 | inactive
mRpL21 | 1 | – | 6922 | 5.31e5 | inactive
Nepl12 | 1 | – | 7860 | 4.30e5 | inactive
CG14191 | 1 | – | 6066 | 4.57e5 | inactive
qkr58E-3 | 1 | – | 6718 | 5.07e5 | inactive
CG5327 | 1 | – | 6348 | 3.25e5 | inactive
ATPsynG | 1 | – | 5412 | 6.73e5 | inactive
CG12951 | 1 | – | 6159 | 5.31e5 | inactive
CG14668 | 1 | – | 6863 | 3.40e5 | inactive
na | 1 | – | 5791 | 5.46e5 | inactive
LeuRS | 1 | – | 9189 | 7.16e5 | inactive
aly | 1 | – | 5931 | 2.86e5 | inactive
aly | 2 | – | 8643 | 4.77e5 | inactive
CG42271 | 1 | – | 9181 | 6.00e5 | inactive
CG42271 | 2 | – | 4444 | 4.12e5 | inactive
CG40948 (retired record) | 1 | – | 4812 | 4.53e5 | inactive
CG42582 (retired record) | 1 | – | 4644 | 3.99e5 | inactive
Inx5 | 1 | – | 6199 | 4.01e5 | inactive
SF1 | 1 | – | 5879 | 5.23e5 | inactive
